# Paper PMC4476799, “Englerin A Agonizes the TRPC4/C5 Cation Channels to Inhibit Tumor Cell Line Proliferation” (PLoS ONE, 2015)
# The source gives many values for each of these; only a part stands here.
# Tested on: cancer cell lines from the cancer cell line encyclopedia (CCLE)
# Assay: Cell line profiling (CLiP) proliferation experiment
# Assay type: cell-based
# Set-up: ACTIVITY_AREA: scale not given here; AMAX: unit not given here
# Protocol: Compound profiling experiment and data analysis was performed as previously described. Data was imported and plotted using the Tibco Spotfire DXP application. Lines were categorized as sensitive, intermediate and refractory as follows: Amax<-40 & Inflection Point <2 ~ Sensitive, Amax>-20 & Inflection Point >10 ~ Refractory, all else were called Intermediate. Cancer Cell line HG-U133 Plus 2 data was processed and normalized as described. […] Five sets of refractory cell lines were generated from the pool of refractory cell lines trying to match the lineage composition of the set of sensitive cell lines. The limma package was used as previously described to perform the statistical comparison.
# [1] = cell line HCC-15 (lung, squamous_cell_carcinoma)
# [2] = cell line HCC-44 (lung, adenocarcinoma)
# [3] = cell line HCC-1171 (lung, non_small_cell_carcinoma)
# [4] = cell line HCT 116, large_intestine
# [5] = cell line HCT-15, large_intestine
# [6] = cell line HEL 92.1.7 (haematopoietic_and_lymphoid_tissue, acute_myeloid_leukaemia)
# [7] = cell line HEL 92.1.7, haematopoietic_and_lymphoid_tissue
# [8] = cell line HH, haematopoietic_and_lymphoid_tissue
structure (smiles),measurement,setting,value
CC(C)[C@@]12C[C@@H](O)[C@@](C)(O1)[C@@H]1CC[C@@H](C)[C@H]1[C@@H]2OC(=O)/C=C/c1ccccc1 [Englerin B],RESPONSE,cell line HCC38,INTERMEDIATE
same,ACTIVITY_AREA,"cell line HCC38, breast",10.97
same,AMAX,"cell line HCC38, breast",-45.93
same,RESPONSE,"cell line HCC38, breast",INTERMEDIATE
same,ACTIVITY_AREA,cell line HCC827,34.23
same,AMAX,cell line HCC827,-77.46
same,RESPONSE,cell line HCC827,INTERMEDIATE
same,ACTIVITY_AREA,"cell line HCC827, lung",34.23
same,AMAX,"cell line HCC827, lung",-77.46
same,RESPONSE,"cell line HCC827, lung",INTERMEDIATE
same,ACTIVITY_AREA,cell line HCC1143,34.15
same,AMAX,cell line HCC1143,-49.72
same,RESPONSE,cell line HCC1143,INTERMEDIATE
same,ACTIVITY_AREA,"cell line HCC1143, breast",34.15
same,AMAX,"cell line HCC1143, breast",-49.72
same,RESPONSE,"cell line HCC1143, breast",INTERMEDIATE
same,ACTIVITY_AREA,cell line HCC1187,52.26
same,AMAX,cell line HCC1187,-61.7
same,RESPONSE,cell line HCC1187,INTERMEDIATE
same,ACTIVITY_AREA,"cell line HCC1187, breast",52.26
same,AMAX,"cell line HCC1187, breast",-61.7
same,RESPONSE,"cell line HCC1187, breast",INTERMEDIATE
same,ACTIVITY_AREA,cell line HCC1395,19.52
same,AMAX,cell line HCC1395,-39.26
same,RESPONSE,cell line HCC1395,INTERMEDIATE
same,ACTIVITY_AREA,"cell line HCC1395, breast",19.52
same,AMAX,"cell line HCC1395, breast",-39.26
same,RESPONSE,"cell line HCC1395, breast",INTERMEDIATE
same,ACTIVITY_AREA,cell line HCC1419,74.8
same,AMAX,cell line HCC1419,-53.34
same,RESPONSE,cell line HCC1419,INTERMEDIATE
same,ACTIVITY_AREA,"cell line HCC1419, breast",74.8
same,AMAX,"cell line HCC1419, breast",-53.34
same,RESPONSE,"cell line HCC1419, breast",INTERMEDIATE
same,ACTIVITY_AREA,cell line HCC1428,10.07
same,AMAX,cell line HCC1428,-43.35
same,RESPONSE,cell line HCC1428,INTERMEDIATE
same,ACTIVITY_AREA,"cell line HCC1428, breast",10.07
same,AMAX,"cell line HCC1428, breast",-43.35
same,RESPONSE,"cell line HCC1428, breast",INTERMEDIATE
same,ACTIVITY_AREA,cell line HCC1500,18.34
same,AMAX,cell line HCC1500,-35.2
same,RESPONSE,cell line HCC1500,INTERMEDIATE
same,ACTIVITY_AREA,"cell line HCC1500, breast",18.34
same,AMAX,"cell line HCC1500, breast",-35.2
same,RESPONSE,"cell line HCC1500, breast",INTERMEDIATE
same,ACTIVITY_AREA,cell line HCC1569,30.83
same,AMAX,cell line HCC1569,-51.52
same,RESPONSE,cell line HCC1569,INTERMEDIATE
same,ACTIVITY_AREA,"cell line HCC1569, breast",30.83
same,AMAX,"cell line HCC1569, breast",-51.52
same,RESPONSE,"cell line HCC1569, breast",INTERMEDIATE
same,ACTIVITY_AREA,cell line HCC1806,25.73
same,AMAX,cell line HCC1806,-40.41
same,RESPONSE,cell line HCC1806,INTERMEDIATE
same,ACTIVITY_AREA,"cell line HCC1806, breast",25.73
same,AMAX,"cell line HCC1806, breast",-40.41
same,RESPONSE,"cell line HCC1806, breast",INTERMEDIATE
same,ACTIVITY_AREA,cell line HCC1937,37.43
same,AMAX,cell line HCC1937,-51.09
same,RESPONSE,cell line HCC1937,INTERMEDIATE
same,ACTIVITY_AREA,"cell line HCC1937, breast",37.43
same,AMAX,"cell line HCC1937, breast",-51.09
same,RESPONSE,"cell line HCC1937, breast",INTERMEDIATE
same,ACTIVITY_AREA,cell line HCC1954,52.62
same,AMAX,cell line HCC1954,-68.91
same,RESPONSE,cell line HCC1954,INTERMEDIATE
same,ACTIVITY_AREA,"cell line HCC1954, breast",52.62
same,AMAX,"cell line HCC1954, breast",-68.91
same,RESPONSE,"cell line HCC1954, breast",INTERMEDIATE
same,ACTIVITY_AREA,cell line HCC2218,37.19
same,AMAX,cell line HCC2218,-45.48
same,RESPONSE,cell line HCC2218,INTERMEDIATE
same,ACTIVITY_AREA,"cell line HCC2218, breast",37.19
same,AMAX,"cell line HCC2218, breast",-45.48
same,RESPONSE,"cell line HCC2218, breast",INTERMEDIATE
same,ACTIVITY_AREA,[1],57.49
same,AMAX,[1],-70.57
same,RESPONSE,[1],INTERMEDIATE
same,ACTIVITY_AREA,[2],54.42
same,AMAX,[2],-58.5
same,RESPONSE,[2],INTERMEDIATE
same,ACTIVITY_AREA,"cell line HCC-44, lung",54.42
same,AMAX,"cell line HCC-44, lung",-58.5
same,ACTIVITY_AREA,cell line HCC-95,14.61
same,AMAX,cell line HCC-95,-59.04
same,RESPONSE,cell line HCC-95,INTERMEDIATE
same,ACTIVITY_AREA,"cell line HCC-95, lung",14.61
same,AMAX,"cell line HCC-95, lung",-59.04
same,RESPONSE,"cell line HCC-95, lung",INTERMEDIATE
same,ACTIVITY_AREA,cell line HCC-366,6.53
same,AMAX,cell line HCC-366,14.96
same,RESPONSE,cell line HCC-366,REFRACTORY
same,ACTIVITY_AREA,"cell line HCC-366, lung",6.53
same,AMAX,"cell line HCC-366, lung",14.96
same,ACTIVITY_AREA,[3],53.16
same,AMAX,[3],-52.03
same,RESPONSE,[3],INTERMEDIATE
same,ACTIVITY_AREA,cell line HCT 116,27.37
same,AMAX,cell line HCT 116,-29.85
same,RESPONSE,cell line HCT 116,INTERMEDIATE
same,ACTIVITY_AREA,[4],27.37
same,AMAX,[4],-29.85
same,RESPONSE,[4],INTERMEDIATE
same,ACTIVITY_AREA,cell line HCT-15,18.03
same,AMAX,cell line HCT-15,-41.69
same,RESPONSE,cell line HCT-15,INTERMEDIATE
same,ACTIVITY_AREA,[5],18.03
same,AMAX,[5],-41.69
same,RESPONSE,[5],INTERMEDIATE
same,ACTIVITY_AREA,cell line HEC-1-A,17.69
same,AMAX,cell line HEC-1-A,-45.32
same,RESPONSE,cell line HEC-1-A,INTERMEDIATE
same,ACTIVITY_AREA,"cell line HEC-1-A, endometrium",17.69
same,AMAX,"cell line HEC-1-A, endometrium",-45.32
same,RESPONSE,"cell line HEC-1-A, endometrium",INTERMEDIATE
same,ACTIVITY_AREA,cell line HEC-6,19.97
same,AMAX,cell line HEC-6,-45.33
same,RESPONSE,cell line HEC-6,INTERMEDIATE
same,ACTIVITY_AREA,"cell line HEC-6, endometrium",19.97
same,AMAX,"cell line HEC-6, endometrium",-45.33
same,RESPONSE,"cell line HEC-6, endometrium",INTERMEDIATE
same,ACTIVITY_AREA,cell line HEC-50B,36.05
same,AMAX,cell line HEC-50B,-44.91
same,RESPONSE,cell line HEC-50B,INTERMEDIATE
same,ACTIVITY_AREA,"cell line HEC-50B, endometrium",36.05
same,AMAX,"cell line HEC-50B, endometrium",-44.91
same,RESPONSE,"cell line HEC-50B, endometrium",INTERMEDIATE
same,ACTIVITY_AREA,cell line HEC-59,78.46
same,AMAX,cell line HEC-59,-60.29
same,RESPONSE,cell line HEC-59,INTERMEDIATE
same,ACTIVITY_AREA,"cell line HEC-59, endometrium",78.46
same,AMAX,"cell line HEC-59, endometrium",-60.29
same,RESPONSE,"cell line HEC-59, endometrium",INTERMEDIATE
same,ACTIVITY_AREA,cell line HEC-151,68.45
same,AMAX,cell line HEC-151,-69.63
same,RESPONSE,cell line HEC-151,INTERMEDIATE
same,ACTIVITY_AREA,"cell line HEC-151, endometrium",68.45
same,AMAX,"cell line HEC-151, endometrium",-69.63
same,RESPONSE,"cell line HEC-151, endometrium",INTERMEDIATE
same,ACTIVITY_AREA,cell line HEC-251,28.47
same,AMAX,cell line HEC-251,-37.96
same,RESPONSE,cell line HEC-251,INTERMEDIATE
same,ACTIVITY_AREA,"cell line HEC-251, endometrium",28.47
same,AMAX,"cell line HEC-251, endometrium",-37.96
same,RESPONSE,"cell line HEC-251, endometrium",INTERMEDIATE
same,ACTIVITY_AREA,cell line HEC-265,15.99
same,AMAX,cell line HEC-265,-55.28
same,RESPONSE,cell line HEC-265,INTERMEDIATE
same,ACTIVITY_AREA,"cell line HEC-265, endometrium",15.99
same,AMAX,"cell line HEC-265, endometrium",-55.28
same,RESPONSE,"cell line HEC-265, endometrium",INTERMEDIATE
same,ACTIVITY_AREA,[6],34.01
same,AMAX,[6],-62.2
same,RESPONSE,[6],INTERMEDIATE
same,ACTIVITY_AREA,[7],34.01
same,AMAX,[7],-62.2
same,RESPONSE,[7],INTERMEDIATE
same,ACTIVITY_AREA,cell line HGC-27,76.82
same,AMAX,cell line HGC-27,-80.89
same,RESPONSE,cell line HGC-27,INTERMEDIATE
same,ACTIVITY_AREA,"cell line HGC-27, stomach",76.82
same,AMAX,"cell line HGC-27, stomach",-80.89
same,RESPONSE,"cell line HGC-27, stomach",INTERMEDIATE
same,ACTIVITY_AREA,cell line HH,44.87
same,AMAX,cell line HH,-92.74
same,RESPONSE,cell line HH,INTERMEDIATE
same,ACTIVITY_AREA,[8],44.87
same,AMAX,[8],-92.74
same,RESPONSE,[8],INTERMEDIATE
same,ACTIVITY_AREA,cell line HLC-1,32.85
same,AMAX,cell line HLC-1,-47.99
